# Literature values as cited in patent publication US11850291B2, “PSMA targeted radiotherapy medicine and preparation method thereof” (NATIONAL ATOMIC RESEARCH INSTITUTE, priority 2019, dated 2023).
# Key:
# [1] = test system: prostate cancer (PCa) bone metastasis; conditions: clinical studies
Structure (SMILES),"sensitivity for primary prostate cancer (prostate cancer (PCa); PET compared with MRI, Yamaguchi 2005)",positive rate of PET diagnosis of prostate cancer (prostate cancer (PCa); in vivo),sensitivity of tumor diagnosis (prostate cancer (PCa); in vivo),specificity of tumor diagnosis (prostate cancer (PCa); in vivo),sensitivity for prostate cancer bone metastasis [1],specificity for prostate cancer bone metastasis [1]
C[N+](C)([11CH3])CCO [C-11-Choline],~100%,47%,–,–,–,–
"C[N+](C)(C[18F])CCO [F-18-FECH, N-[F-18]fluoromethyl choline]",–,–,84.7%,91.1%,–,–
[18F-].[Na+] [F-18-NaF],–,27%,–,–,93%,54%
